Here are results for 6 compounds from patent US9315793B2, “Enzymes that synthesize zingiberene” (Board of Trustees of Michigan State University, priority 2011, dated 2016).

The subject of this data set is LA2167-ZIS zingiberene synthase. As to the kind of experiment: GC-MS profile of products synthesized by recombinant LA2167-ZIS supplied with 2Z,6Z-FPP. Particulars: products of E. coli-expressed codon-optimized LA2167-ZIS (SEQ ID NO:3) supplied with 2Z,6Z-farnesyl diphosphate; GC-MS extracted ion 93. Type of data set: biochemical, Solanum habrochaites.

Turning to `C=C(C)C(CO)C/C=C(/C)CCC=C(C)C` (stereo not drawn) [Sesquilavandulol <Z>], the “Peak Area %” value came to 0.228%.

Regarding `C=C(CCC=C(C)C)[C@@H]1CC=C(C)CC1` [Bisabolene beta], the “Peak Area %” value is given as 0.107%.

Turning to `C=C1C=CC(C(C)CCC=C(C)C)CC1` (stereo not drawn) [Sesquiphellandrene beta], the “Peak Area %” value came to 0.567%.

As for `CC(C)=CCC[C@H](C)[C@@H]1C=CC(C)=CC1` [α-zingiberene], the “Peak Area %” value was determined as 97.839%.

bergamotene: the “Peak Area %” value came to 0.273%.

Turning to `CC(C)=CCCC(C)c1ccc(C)cc1` (stereo not drawn) [AR-curcumene], the “Peak Area %” value is given as 0.986%.
